The campaign covered roughly 320,000 compounds. About 2,100 (0.66%) were called active. Inconclusive means that the source gave no clear call. Such entries were picked first, then a sample of the others. The call rests on the fitted dose curve; in most records, active means well fitted inhibition curve with a large enough effect in the signal ratio, with a control signal flat (not every such curve was filed as active); inconclusive means small, poorly fitted or top-dose-only effect, or effect the other way, or a change in a side signal; inactive means flat fitted curve, though single readings scatter; the % refers to the signal ratio. Potencies beside an inconclusive call are fits to weak or partial responses and may not hold up.
Experiment: qHTS Assay for Lipid Storage Modulators in Drosophila S3 Cells
Details: BODIPY lipid droplet fluorescence, 18-24 h, cells fed with added oleic acid; lipid storage change, negative = inhibition: at 46.1 µM (top of the series) unless noted
Method in brief: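 Drosophila S3 cells loaded with oleic acid (400 uM, as added) and compounds at several concentrations; lipid droplets imaged by 488-nm laser-scanning cytometry, 500–530 nm intensity and object ratio to cell channel. Percent activity normalized to 20 uM Triacsin C.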
On the % scale 0 is the no-effect control and ±100 the full control effect; potency means the concentration at half of the fitted maximal effect.

SMILES | lipid storage change, negative = inhibition | Potency
O=C(O)CC(NC(=O)Cc1ccccc1)c1cc([N+](=O)[O-])ccc1Cl (stereo not drawn) | inconclusive: -23.5% | –
Cn1c(SCC(=O)NCc2cccs2)nnc1-c1cccs1 | inconclusive: 0.22% | –
CSc1ccc(CN(C)C(=O)CSCC(=O)Nc2ccc(C)cc2)cc1 | inconclusive: -13.2% | –
Cc1ccc2c(c1)nnn2C1CCN(C(=O)C2CCCCC2)CC1 | – | inconclusive: 14.6 µM [rising, partial curve]
CCn1nc(NC(=O)C(C)(C)C)c2cc3cccc(C)c3nc21 | – | active: 2.91 µM
O=C(COc1ccccc1)OCc1cc(-c2ccco2)on1 | inconclusive: 24.2% | –
Cc1ccnc(NC(=O)CCC(=O)N(CC(=O)NC2CCCCC2)c2cccc(C)c2C)c1 | – | inconclusive: 1.16 µM [activator, full curve]
Cc1ccnc2nc(C(=O)NCc3ccccc3)nn12 | inconclusive: 4.8% | –
Cc1oc(C(C)(C)C)cc1C(=O)N1CCN(c2ccc(C(F)(F)F)cn2)CC1 | inconclusive: -1.98% | –
CN(C)c1ccc(C(=O)Nc2nnc(-c3ccc(Cl)cc3)o2)cc1 | inconclusive: -25.6% | –
Cc1ccc2oc3c(c(=O)c2c1)C(c1cccc(Br)c1)N(Cc1ccco1)C3=O (stereo not drawn) | inconclusive: 15.4% | –
CN(C)CC(=O)Nc1nc(-c2ccccc2)cs1 | – | inconclusive: 2.31 µM [falling, partial curve, poor fit]
O=C1C(=O)N(Cc2ccccc2)C(c2cccc(O)c2)/C1=C(\O)c1ccc2c(c1)OCCO2 (stereo not drawn) | – | inconclusive: 6.51 µM [falling, single point]
CCOc1ccc(C(=O)Nc2cc(C)c3c(=O)oc4ccccc4c3n2)cc1 | inconclusive: -34.1% | –
O=C(CSc1nnc(Nc2ccccc2F)s1)c1cc2ccccc2o1 | – | inconclusive: 14.6 µM [cytotoxic, partial curve]
O=C(O)C1CCCCC1C(=O)Nc1ccc(Cl)cc1 (stereo not drawn) | inconclusive: -60.6% | –
COc1ccc(OC)c(Cc2nnc(CCC(=O)NCc3nc4ccccc4s3)o2)c1 | – | inconclusive: 25.9 µM [falling, partial curve, poor fit]
Cc1cc(S(=O)(=O)N2CCCC(N3CCOCC3)C2)c(C)cc1Cl (stereo not drawn) | – | inconclusive: 4.61 µM [activator, full curve, poor fit]
COc1ccc(Br)cc1-c1nc(CCl)cs1 | inconclusive: 22.6% | –

Reformatted: results already given.
CCn1nc(NC(=O)C(C)(C)C)c2cc3cccc(C)c3nc21
  Potency: active: 2.91 µM
O=C(COc1ccccc1)OCc1cc(-c2ccco2)on1
  lipid storage change, negative = inhibition: inconclusive: 24.2%
O=C(O)C1CCCCC1C(=O)Nc1ccc(Cl)cc1 (stereo not drawn)
  lipid storage change, negative = inhibition: inconclusive: -60.6%

The listing continues:

SMILES | lipid storage change, negative = inhibition | Potency
C[C@@H](C(=O)NCC1CC1)[C@@H]1C[C@@]1(C)[C@@H](NC(=O)OCc1ccccc1)c1ccccc1 | – | inconclusive: 16.4 µM [activator, single point]
CCOc1cc(/C=N/NC(=O)c2ccccn2)ccc1OC(=O)c1cccs1 | inconclusive: 14.3% | –
COc1ccc(NC(C)c2ccccc2)cc1 (stereo not drawn) | inactive | –
Cc1ccc(C(=O)C2CCN(CC(=O)Nc3ccccc3C)CC2)cc1 | – | inconclusive: 4.61 µM [activator, single point]
CC(C)[C@H](NC(=O)c1ccccc1)C(=O)Nc1cccc(S(=O)(=O)N2CCOCC2)c1 | – | inconclusive: 20.6 µM [falling, single point]
Cc1ccc(-c2nnc(N3CCN(CCO)CC3)c3ccccc23)cc1 | – | inconclusive: 25.9 µM [activator, single point]
COc1cccc(CNC(=O)CCCCCn2c(=S)[nH]c3ccc(N4CCOCC4)cc3c2=O)c1 | inactive | –
CN1C(=O)/C(=C/c2ccc3c(c2)OCO3)N=C1c1ccccc1 | – | inconclusive: 1.64 µM [activator, partial curve, poor fit]
NC(=O)c1cccc(N=Cc2cc(Cl)cc(Cl)c2O)c1 | inconclusive: 2.08% | –
O=C(CCS(=O)(=O)c1ccccc1Cl)Nc1ccc(S(=O)(=O)Nc2ncccn2)cc1 | inconclusive: 5.48% | –
O=C(Nc1ccccn1)C12CC3CC(C1)CC(C(=O)Nc1ccccn1)(C3)C2 | inconclusive: 52.5% | –
COc1ccccc1NC(=O)COc1ccccc1 | – | inconclusive: 2.31 µM [activator, full curve]
CCCCNC(=O)/C(C#N)=C/c1ccc2c(c1)OCCO2 | – | inconclusive: 29.1 µM [falling, single point]
Cc1cc(C)n(C(=O)C(C)N2C(=O)c3ccccc3C2=O)n1 (stereo not drawn) | inconclusive: 42.3% | –
COc1cc(C(=O)Nc2c(C)cc(C)cc2C)c(Br)c(OC)c1OC | – | inconclusive: 29.1 µM [rising, partial curve, poor fit]
Cc1cccc(S(=O)(=O)c2c(N)n(Cc3ccco3)c3nc4ccccc4nc23)c1 | – | inconclusive: 0.731 µM [activator, full curve, poor fit]
CCc1ccccc1N1CSC2=C(C#N)C(c3cc(OC)c(OC)cc3OC)CC(=O)N2C1 (stereo not drawn) | inconclusive: 83.8% | –
Cc1cc(=O)[nH]c2c(N=Nc3ccc(O)cc3)c(N)nn12 | inconclusive: -2.42% | –
CCOC(=O)C(NC(=O)c1ccccc1)(N1CCCC1=O)C(F)(F)F (stereo not drawn) | inconclusive: 1.18% | –
